Measurements published in article PMC7190567.
No constants are given. Whether binding was seen depends on the method and setting. In cells and extracts the contact can be indirect. Some binding calls cover weakened binding; strength is not graded here. Values belong to the binder of their own block, whether it stands above or below them.

Amino acid sequences for entries named in this document (tags omitted).
UniProt Q03135: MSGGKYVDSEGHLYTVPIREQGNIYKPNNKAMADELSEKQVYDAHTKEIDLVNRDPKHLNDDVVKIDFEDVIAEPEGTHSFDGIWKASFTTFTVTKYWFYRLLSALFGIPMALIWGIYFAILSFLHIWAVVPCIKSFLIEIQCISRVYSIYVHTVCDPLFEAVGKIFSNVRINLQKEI

Assays:
[1] = target: T1, Caveolin-1 (Y14F), non-phosphorylatable mutant (dog) (UniProt P33724); assay: co-IP; polyclonal anti-CAV1 (2.5 ug) on protein A Dynabeads; 2 mg extract of B16F10 cells expressing E-cadherin (pBATEM2); PBS-Tween 0.1%, 2 h, room temperature; western blot
T1 sequence: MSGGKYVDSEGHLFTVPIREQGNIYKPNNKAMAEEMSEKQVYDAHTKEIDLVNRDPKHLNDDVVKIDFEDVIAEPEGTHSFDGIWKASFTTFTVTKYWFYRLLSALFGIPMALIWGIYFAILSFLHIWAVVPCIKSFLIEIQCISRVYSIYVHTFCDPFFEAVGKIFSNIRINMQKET

[2] = target: T1, Caveolin-1 (Y14F), non-phosphorylatable mutant (dog); assay: co-IP; polyclonal anti-CAV1 (2.5 ug) on protein A Dynabeads; 2 mg extract of B16F10 cells without E-cadherin; PBS-Tween 0.1%, 2 h, room temperature; western blot
[3] = target: Caveolin-1 (human, endogenous in Gbd1 cells) (human (endogenous in Gbd1)) (UniProt Q03135); assay: co-IP; human Gbd1 and DLD-1 cancer cells that express E-cadherin, PTPN14 and CAV1; PTPN14 detected by western blot

- binding [1]: binds
- binding [2]: binds
B1: Tyrosine-protein phosphatase non-receptor type 14 (PTPN14) (enzyme, UniProt Q62130 1-1189)
chain: MPFGLKLRRTRRYNVLSKNCFVTRIRLLDSNVIECTLSVESTGQECLEAVAQRLELRETHYFGLWFLSKSQQARWVELEKPLKKHLDKFANEPLLFFGVMFYVPNVSRLQQEATRYQYYLQVKKDVLEGRLRCSLEQVIRLAGLAVQADFGDYNQFDSQEFLREYVLFPMDLAMEEAALEELTQKVAQEHKAHSGILPAEAELMYINEVERLDGFGQEIFPVKDSHGNSVHLGIFFMGIFVRNRVGRQAVIYRWNDIGSVTHSKAAILLELIDKEETALFHTDDIENAKYISRLFTTRHKFYKQNKICTEQSNSPPPIRRQPTWSRSSLPRQQPYILPPMHVQCSEHYSETHTSQDSIFPGNEEALYCRSHNSLDLNYLNGTVTNGSVCSVHSVNSLSCSQSFIQASPVSSNLSIPGSDIMRADYIPSHRHSTIIVPSYRPTPDYETVMRQMKRGLMHADSQSRSLRNLNIINTHAYNQPEELVYSQPEMRERHPYTVPYAHQGCYGHKLVSPSDQMNPQNCAMPIKPGASSISHTVSTPELANMQLQGAQHYSTAHMLKNYLFRPPPPYPRPRPATSTPDLASHRHKYVSGSSPDLVTRKVQLSVKTFQEDSSPVVHQSLQEVSEPLTATKHHGGGGGTVNKRHSLEVMNSMVRGMEAMTLKSLNIPMARRNTLREQGPSEETGGHEVHGLPQYHHKKTFSDATMLIHSSESEEEEETLEAAPQVPVLREKVEYSAQLQAALARIPNRPPPEYPGPRKSVSNGALRQDQGTPLPAMARCRVLRHGPSKALSVSRAEQLAVNGASLGPSISEPDLTSVKERVKKEPVKERPVSEMFSLEDSIIEREMMIRNLEKQKMTGPQAQKRPLMLAALNGLSVARVSGREDGHHDATRVPIDERLRALKKKLEDGMVFTEYEQIPNKKANGVFSTATLPENAERSRIREVVPYEENRVELIPTKENNTGYINASHIKVVVGGSEWHYIATQGPLPHTCHDFWQMVWEQGVNVIAMVTAEEEGGRTKSHRYWPKLGSKHSSATYGKFKVTTKFRTDSGCYATTGLKVKHLLSGQERTVWHLQYTDWPHHGCPEDVQGFLSYLEEIQSVRRHTNSVLEGIRTRHPPIVVHCSAGVGRTGVVILSELMIYCLEHNEKVEVPTMLRFLREQRMFMIQTIAQYKFVYQVLVQFLQNSRLI

- binding [3]: binds
B2: PTPN14 (human, endogenous) (enzyme, UniProt Q15678 1-1187)
chain: MPFGLKLRRTRRYNVLSKNCFVTRIRLLDSNVIECTLSVESTGQECLEAVAQRLELRETHYFGLWFLSKSQQARWVELEKPLKKHLDKFANEPLLFFGVMFYVPNVSWLQQEATRYQYYLQVKKDVLEGRLRCTLDQVIRLAGLAVQADFGDYNQFDSQDFLREYVLFPMDLALEEAVLEELTQKVAQEHKAHSGILPAEAELMYINEVERLDGFGQEIFPVKDNHGNCVHLGIFFMGIFVRNRIGRQAVIYRWNDMGNITHNKSTILVELINKEETALFHTDDIENAKYISRLFATRHKFYKQNKICTEQSNSPPPIRRQPTWSRSSLPRQQPYILPPVHVQCGEHYSETHTSQDSIFHGNEEALYCNSHNSLDLNYLNGTVTNGSVCSVHSVNSLNCSQSFIQASPVSSNLSIPGSDIMRADYIPSHRHSAIIVPSYRPTPDYETVMRQMKRGILHTDSQSQSLRNLNIINTHAYNQPEDLVYSQPEMRERHPYTVPYGPQGVYSNKLVSPSDQRNPKNNVVPSKPGASAISHTVSTPELANMQLQGSHNYSTAHMLKNYLFRPPPPYPRPRPATSTPDLASHRHKYVSGSSPDLVTRKVQLSVKTFQEDSSPVVHQSLQEVSEPLTATKHHGTVNKRHSLEVMNSMVRGMEAMTLKSLHLPMARRNTLREQGPPEEGSGSHEVPQLPQYHHKKTFSDATMLIHSSESEEEEEEAPESVPQIPMLREKMEYSAQLQAALARIPNKPPPEYPGPRKSVSNGALRQDQASLPPAMARARVLRHGPAKAISMSRTDPPAVNGASLGPSISEPDLTSVKERVKKEPVKERPVSEMFSLEDSIIEREMMIRNLEKQKMAGLEAQKRPLMLAALNGLSVARVSGREENRVDATRVPMDERFRTLKKKLEEGMVFTEYEQIPKKKANGIFSTAALPENAERSRIREVVPYEENRVELIPTKENNTGYINASHIKVVVGGAEWHYIATQGPLPHTCHDFWQMVWEQGVNVIAMVTAEEEGGRTKSHRYWPKLGSKHSSATYGKFKVTTKFRTDSVCYATTGLKVKHLLSGQERTVWHLQYTDWPDHGCPEDVQGFLSYLEEIQSVRRHTNSMLEGTKNRHPPIVVHCSAGVGRTGVLILSELMIYCLEHNEKVEVPMMLRLLREQRMFMIQTIAQYKFVYQVLIQFLQNSRLI
